These results are taken from PubChem BioAssay (NCATS).

The chains behind the UniProt entries cited, without tags or fusion partners. Where a name states a change or a piece, a line headed by the entry shows the natural chain unless it says otherwise.
UniProt P50135: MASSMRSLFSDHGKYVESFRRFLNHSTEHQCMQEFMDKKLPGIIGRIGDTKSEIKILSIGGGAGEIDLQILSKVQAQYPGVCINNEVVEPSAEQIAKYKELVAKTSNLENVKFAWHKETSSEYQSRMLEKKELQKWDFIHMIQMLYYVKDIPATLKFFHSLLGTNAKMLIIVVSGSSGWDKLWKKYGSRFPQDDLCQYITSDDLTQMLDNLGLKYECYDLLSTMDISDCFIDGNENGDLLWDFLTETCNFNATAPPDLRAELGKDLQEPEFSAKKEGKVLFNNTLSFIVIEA
UniProt P11086: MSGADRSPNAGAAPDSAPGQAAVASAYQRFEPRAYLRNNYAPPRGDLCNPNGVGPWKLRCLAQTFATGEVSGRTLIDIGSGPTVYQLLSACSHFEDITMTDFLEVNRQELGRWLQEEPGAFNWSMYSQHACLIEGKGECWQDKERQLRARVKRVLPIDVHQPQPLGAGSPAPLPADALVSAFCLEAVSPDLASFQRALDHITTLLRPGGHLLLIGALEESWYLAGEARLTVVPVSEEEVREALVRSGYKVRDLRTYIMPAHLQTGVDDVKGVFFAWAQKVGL

Some of the results follow. The main result of the screen is listed elsewhere. These columns were measured beside it and carry no call. Most of these compounds were active or inconclusive in the main read-out, so they are no random draw. Words in brackets tell the shape of the fitted curve; partial curves, single points and poor fits give uncertain potencies.

The nature of experiment [1]: Validation of Assay for Modulators of Lamin A Splicing (AID 1459). The following applies: Lamin A splicing dual RFP/GFP fluorescence reporter, ratio. A digest of the protocol: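 Dual-reporter HeLa S3 line (lamin A-EGFP minigene, DsRed2) treated with compounds 48 hrs, 0.5% DMSO final. Endpoint: EGFP/DsRed2 total intensity ratio from laser-scanning microplate cytometry.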

Experiment [2] can be described thus: qHTS Assay for Modulators of Human Peripheral Myelin Protein 22 (PMP22) Expression/Activity (AID 1967). The following applies: Cell-based PMP22 reporter, dual-color luciferase ratio. A digest of the protocol: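 Engineered MSC80 cells, Pmp22-promoter green and EF-alpha red luciferase reporters; 24h compound treatment at 37 °C. Concentration-response fits on green, red and ratio signals, each overlap-corrected, with %Activity normalized to untreated wells.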
In general terms: qHTS replaces the single test concentration by a dilution series.

Experiment [3] is described as follows: qHTS Validation Assay to Find Inhibitors of Chronic Active B-Cell Receptor Signaling (AID 485345). The following applies: ABC-DLBCL cells, chronic BCR signaling reporter. A digest of the protocol: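 Read-out: ratio of filter-corrected green (IkappaBalpha fusion) to red (native) luciferase signal in doxycycline-induced TMD8 cells after 4 h at 37C. Titration spanned 46 uM–3 nM; Data were normalised to basal cells and 10 uM MG-132 wells.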

Experiment [4] can be described thus: qHTS Assay for Lipid Storage Modulators (AID 1519). The note with it: Drosophila S3 cells, BODIPY lipid droplet/cell ratio, laser cytometry, cells loaded with oleic acid. A digest of the protocol: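 Cells seeded at 5,000 per well were treated with compounds over a concentration series and loaded with oleic acid (400 uM, as added). Lipid droplet fluorescence (488 nm excitation, 500-530 nm channel) was read by laser-scanning cytometry and normalized to 20 uM Triacsin C.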

For experiment [5], the target named is Histamine N-methyltransferase (Homo sapiens) (UniProt P50135). As to the kind of experiment: Confirmatory Screen for Target Class Profiling of Small Molecule Inhibitors of Methyltransferases (AID 1745852). The following applies: MTase-Glo luminescence, SAH detection, recombinant enzyme; measured here: HNMT inhibition potency.
Experiment [6] has as its target Phenylethanolamine N-methyltransferase (Homo sapiens) (UniProt P11086). Described as above. The note with it: MTase-Glo luminescence, SAH detection, recombinant enzyme; measured here: PNMT inhibition potency.
Experiment [7] can be described thus: Nrf2 qHTS screen for inhibitors: Validation (AID 493153). The note with it: A549 ARE-Fluc reporter, 18-24 h; AC50: CellTiter-Fluor fluorescence read, measured here: cytotoxicity CellTiter-Fluor AC50; viability change: measured here: cytotoxicity max response. A digest of the protocol: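 Dose-response validation uses reporter A549 cells with firefly luciferase under an antioxidant response element. Compounds stay on cells 18-24 h at 37°C, and luminescence indicates Nrf2-driven transcription.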

The nature of experiment [8]: S16 Schwann cell PMP22 intronic element beta-lactamase assay (AID 624044). The note with it: S16 rat Schwann cells, PMP22 element beta-lactamase FRET, 24 h; measured here: 460 nm blue channel. In short, it runs like this: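 Rat S16 Schwann cells with beta-Lac driven by a PMP22 intronic element, compound-treated 24 h at 37 °C. LiveBLAzer FRET B/G read: 460 nm normalized to potassium clavulanate vs DMSO; 535 nm FRET as viability; concentration-effect curves classified.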

Experiment [9] can be described thus: Cell-based coincidence reporter assay to measure PMP22 gene transcription in S16 Pmp22-F2sN cells - Confirmatory screen (AID 1508646). The following applies: S16 Schwann cells Pmp22-F2sN, dual luciferase, 24 h. In short, it runs like this:
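Coincidence reporter read as sequential FLuc then NLuc luminescence (Nano-Glo Dual-Luciferase, 10 min each). Engineered S16 Pmp22-F2sN Schwann cells, 500-1,000 per well in DMEM/10% FBS, were exposed to compounds for 24 h, 37C.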
On the technique in general: A reporter such as luciferase makes a cellular process visible.

The mark [10] stands for this setting: measured here: red reporter channel AC50, EF-alpha promoter control reporter in MSC80 mouse Schwann cells.
Setting [11] is: measured here: CBG/CBR ratio read-out.
The mark [12] stands for this setting: measured here: CBR control luciferase (viability counter).
Where [13] appears, read: measured here: cell count channel max response.
The mark [14] stands for this setting: measured here: cell number channel AC50.
Setting [15] is: measured here: lipid (BODIPY) channel AC50.
Setting [16] is: measured here: lipid channel max response.
Setting [17] is: measured here: green reporter channel AC50, mouse Pmp22 promoter in mouse Schwann cells.

For orientation: AC50 means the concentration at which the activity in the assay is half-maximal. Take `Cc1ccc(S(=O)(=O)N[C@@H](CCCCN)C(=O)CCl)cc1`: the AC50 in [1] (measured here: GFP channel) was 15.8 µM [falling, single point]; in experiment [1] (measured here: RFP channel), 28.2 µM [falling, partial curve]; in experiment [2] (setting [10]), 67.5 µM [falling, single point]; in [3] (setting [11]) it was 18.4 µM [falling, partial curve]; in experiment [3] (setting [12]) it was 20.6 µM [falling, single point].
The IC50 is the point on the concentration scale where inhibition reaches its midpoint. As to `CC(N)c1cccc(Cl)c1Cl` (centres undefined), the AC50 in [1] (measured here: RFP channel) is 22.4 µM [falling, partial curve, poor fit]; in experiment [4] (setting [14]), 39.8 µM [rising, single point]; in experiment [4] (setting [15]), 39.8 µM [rising, single point]. In addition, the results for the max response in [4] (setting [13]) and in [4] (setting [16]) were 62.6% and 62.8%, respectively. Moreover, the half-inhibitory concentration (IC50) in experiment [5] was 21.7 µM [falling, partial curve]; in experiment [6], 1.22 µM [falling, full curve].
Regarding `NC(N)=Nc1ccc2[nH]c3c(c2c1)C[C@@]1(O)[C@H]2Cc4ccc(O)c5c4[C@@]1(CCN2CC1CC1)[C@H]3O5`, the AC50 in [1] (measured here: GFP channel) was 35.5 µM [falling, single point]; in experiment [2] (setting [17]), 37.9 µM [falling, full curve]; in experiment [2] (setting [10]), 47.8 µM [falling, partial curve, poor fit]; in experiment [3] (setting [11]) it was 13 µM [falling, partial curve]; in experiment [3] (setting [12]) it was 16.4 µM [falling, single point].
For `NC(N)=N/N=C/c1c(Cl)cccc1Cl`, the AC50 in experiment [1] (measured here: RFP channel) was 3.55 µM [falling, full curve, poor fit]; in experiment [4] (setting [14]), 35.5 µM [rising, single point]; in [4] (setting [15]), 35.5 µM [rising, single point]. In addition, the figures for the max response in experiment [4] (setting [13]) and in experiment [4] (setting [16]) were 44.5% and 46.2%, respectively.
Regarding `CN1CC[C@@]2(C)c3cc(O)ccc3N(C)C12` (some centres undefined), the AC50 in [1] (measured here: GFP channel) was 14.1 µM [falling, single point]; in experiment [1] (measured here: RFP channel) it was 11.2 µM [falling, partial curve]; in experiment [2] (setting [17]) it was 84.9 µM [falling, single point]; in experiment [2] (setting [10]), 95.3 µM [falling, single point]; in experiment [7] it was 18.4 µM [falling, single point]. In addition, the viability change in [7] was -37.9%.
For the molecule `O=C1CS[C@@H](c2ccccc2Cl)c2cc(Cl)ccc2N1`, the max response in experiment [4] (setting [13]) was 24.5%; in [4] (setting [16]), 39.8%.
In the case of `O=c1[nH]cc(F)c(=O)[nH]1`, the AC50 in experiment [1] (measured here: GFP channel) is 0.158 µM [falling, full curve, poor fit]; in experiment [1] (measured here: RFP channel), 0.158 µM [falling, full curve, poor fit]; in experiment [2] (setting [10]), 4.78 µM [falling, full curve]; in experiment [8] it was 4.46 µM [falling, full curve]. Further, the viability change in experiment [7] is -13.4%.
With `C[N+](C)(C)CCOC(=O)CBr`, the half-maximal activity concentration (AC50) was 35.5 µM [rising, single point] in experiment [1] (measured here: GFP channel); 2.82 µM [falling, full curve, poor fit] in experiment [4] (setting [14]); 2.82 µM [falling, full curve, poor fit] in experiment [4] (setting [15]). Moreover, the results for the max response in experiment [4] (setting [13]) and in experiment [4] (setting [16]) were -18.9% and -17.6%, respectively.
Take `CC(=O)[C@H]1CCC2C3CC=C4C[C@@H](OS(=O)(=O)O)CC[C@]4(C)C3CC[C@@]21C` (some centres undefined): the AC50 in experiment [1] (measured here: GFP channel) was 35.5 µM [falling, partial curve]; in [1] (measured here: RFP channel), 35.5 µM [falling, partial curve]; in experiment [2] (setting [17]) it was 21.3 µM [rising, partial curve]; in experiment [2] (setting [10]), 19 µM [rising, partial curve, poor fit].
`C[C@H](N)CN1CCc2ccc(Br)cc21`: the AC50 in [1] (measured here: GFP channel) is 28.2 µM [falling, single point]; in [2] (setting [17]), 67.5 µM [falling, partial curve, poor fit]; in experiment [2] (setting [10]), 84.9 µM [falling, partial curve]; in [3] (setting [12]), 18.4 µM [falling, single point].
For the molecule `C[C@H]1OC[C@@H](C[N+](C)(C)C)O1`, the max response in experiment [4] (setting [13]) is 35%; in experiment [4] (setting [16]), 31.9%.
For `NC(=NCc1ccc(Cl)cc1)SCCCc1cnc[nH]1`, in that order: 80.2% and 103%.
`Cc1ccc(-n2c(/C=C\c3ccc(F)c(F)c3)nc3ccccc3c2=O)c(C)c1`: the AC50 in experiment [9] (measured here: FLuc reporter channel) was 24.3 µM [falling, partial curve]; in experiment [9] (measured here: NLuc reporter channel), 43.2 µM [falling, single point].
Consider `CCc1c(C(=O)OC)ncc2[nH]c3cc(OC)c(OC)cc3c12`, for which the AC50 in experiment [1] (measured here: GFP channel) was 7.94 µM [falling, partial curve]; in experiment [2] (setting [17]), 53.6 µM [falling, partial curve]; in experiment [2] (setting [10]), 37.9 µM [falling, partial curve]. In addition, the max response in [4] (setting [13]) is 66%; in experiment [4] (setting [16]), 70%.
For the molecule `C[C@]12CC[C@H](O)CC1=CCC1C2CC[C@]2(C)C(=O)CC[C@@H]12` (some centres undefined), the AC50 was 35.5 µM [rising, single point] in [1] (measured here: GFP channel); 95.3 µM [falling, single point] in experiment [2] (setting [10]); 5.01 µM [falling, full curve, poor fit] in [8]. Also, the figures for the max response in experiment [4] (setting [13]) and in experiment [4] (setting [16]) were 11.5% and 19%, respectively.
Turning to `CCC[C@@H]1CC2=CC(=O)CC[C@]2(C)[C@@H]2CC[C@@]3(C)[C@H](CC[C@]3(O)CCC(=O)O)[C@H]12`, the max response came to 36.7% in [4] (setting [13]) and 44.1% in experiment [4] (setting [16]).
For `CC(=O)[C@H]1CCC2C3CC[C@H]4C[C@H](O)CC[C@]4(C)C3CC[C@@]21C` (some centres undefined), the AC50 was 12.6 µM [rising, partial curve] in [1] (measured here: GFP channel); 67.5 µM [falling, partial curve] in experiment [2] (setting [17]); 67.5 µM [falling, partial curve] in [2] (setting [10]).
